According to PMC12145441:
These are yes or no findings as the source states them, for the method shown. For part of these data: Binding seen in cells or lysates may run through a third protein. Some results given as binding are weak or reduced against the parent protein; the word gives no strength. For part of these data: Sequences can lack the tags named with a protein.

By UniProt entry, the sequences of proteins in these tests, tags left out.
UniProt O43791: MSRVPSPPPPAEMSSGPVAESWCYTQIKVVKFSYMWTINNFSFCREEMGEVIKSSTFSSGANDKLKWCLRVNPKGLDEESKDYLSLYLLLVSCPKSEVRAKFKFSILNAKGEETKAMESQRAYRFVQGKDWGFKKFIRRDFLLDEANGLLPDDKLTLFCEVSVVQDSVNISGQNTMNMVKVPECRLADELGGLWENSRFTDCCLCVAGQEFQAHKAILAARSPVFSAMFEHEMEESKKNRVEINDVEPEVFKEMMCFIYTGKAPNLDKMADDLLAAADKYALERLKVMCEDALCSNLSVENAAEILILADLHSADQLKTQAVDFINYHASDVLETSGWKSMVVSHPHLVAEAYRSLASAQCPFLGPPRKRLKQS

Experiments:
[1] = target: T1, LMNB2 (Lamin B2), endogenous (UniProt Q03252); experiment: co-IP; endogenous proteins; protein G Sepharose beads coupled with antibody at 4 °C overnight; washed with BC100 buffer with 0.2% Triton X-100; western blot; cell line not stated
T1 sequence: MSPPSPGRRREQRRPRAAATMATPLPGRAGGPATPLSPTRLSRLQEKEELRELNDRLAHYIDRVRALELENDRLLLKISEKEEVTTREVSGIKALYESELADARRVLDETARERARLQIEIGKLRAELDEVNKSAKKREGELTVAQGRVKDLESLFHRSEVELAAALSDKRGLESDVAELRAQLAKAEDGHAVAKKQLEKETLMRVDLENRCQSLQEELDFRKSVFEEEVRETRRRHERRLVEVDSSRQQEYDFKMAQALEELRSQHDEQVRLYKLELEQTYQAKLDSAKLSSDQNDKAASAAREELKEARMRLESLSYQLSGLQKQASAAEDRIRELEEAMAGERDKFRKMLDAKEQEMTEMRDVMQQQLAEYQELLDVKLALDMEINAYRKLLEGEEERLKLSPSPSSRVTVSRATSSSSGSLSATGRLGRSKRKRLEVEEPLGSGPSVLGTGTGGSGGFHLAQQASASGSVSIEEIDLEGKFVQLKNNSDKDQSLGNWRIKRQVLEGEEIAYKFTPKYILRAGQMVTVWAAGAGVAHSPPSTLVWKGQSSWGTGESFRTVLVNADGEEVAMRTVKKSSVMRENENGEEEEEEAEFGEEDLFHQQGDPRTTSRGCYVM

[2] = target: T2, LMNB2, recombinant protein of the GST pull-down (UniProt Q03252); experiment: pull-down; GST fusion protein immobilised on glutathione-Sepharose beads, incubated with recombinant protein for two hours in pull-down buffer (20 mM Tris-HCl pH 7.5, 150 mM NaCl, 0.1% NP-40, 1 mM DTT, 10% glycerol, 1 mM EDTA, 2.5 mM MgCl2); western blot; both purified
T2 sequence: T1 sequence

[3] = target: T3, LMNB2-ΔSBC, recombinant protein of the GST pull-down (UniProt Q03252); experiment: as above
T3 sequence: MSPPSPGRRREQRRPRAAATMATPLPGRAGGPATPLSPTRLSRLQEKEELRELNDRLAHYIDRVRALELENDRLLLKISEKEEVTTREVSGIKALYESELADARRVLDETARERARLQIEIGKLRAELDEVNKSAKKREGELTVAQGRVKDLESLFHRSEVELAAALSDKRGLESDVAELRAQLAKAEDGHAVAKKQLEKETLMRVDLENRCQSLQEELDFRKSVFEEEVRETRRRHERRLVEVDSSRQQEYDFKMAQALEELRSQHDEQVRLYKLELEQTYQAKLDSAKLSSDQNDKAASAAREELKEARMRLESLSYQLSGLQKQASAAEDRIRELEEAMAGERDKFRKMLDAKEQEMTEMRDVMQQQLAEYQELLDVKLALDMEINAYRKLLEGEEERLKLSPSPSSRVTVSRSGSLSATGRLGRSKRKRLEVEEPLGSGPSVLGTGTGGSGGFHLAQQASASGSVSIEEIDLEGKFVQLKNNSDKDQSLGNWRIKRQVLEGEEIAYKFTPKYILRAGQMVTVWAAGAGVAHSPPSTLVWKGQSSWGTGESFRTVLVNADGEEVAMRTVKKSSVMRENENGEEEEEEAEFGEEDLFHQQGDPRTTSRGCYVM

SPOP (speckle-type POZ protein), endogenous (from UniProt O43791 1-374)
binding [1]: binds

SPOP, recombinant protein of the GST pull-down (from UniProt O43791 1-374)
binding [2]: binds | binding [3]: no binding
